At least one compound was matched to its structure with a doubt left.
Molecular target: HEK293 cells over-expressing PDE-10A (Homo sapiens (Human), UniProt Q9Y233)
Test: whole cell PDE-10 assay (intracellular cGMP, EIA)
Type: cell-based
Settings: concentration that elevated intracellular cyclic nucleotide 300% above baseline; HEK293 over-expressing PDE-10A, 30 min compound, 200 μM sodium nitroprusside 2 min

Amino acid sequences for entries named in this document (tags omitted). A change or cut given only in a name is not applied to a line headed by its entry.
UniProt Q9Y233: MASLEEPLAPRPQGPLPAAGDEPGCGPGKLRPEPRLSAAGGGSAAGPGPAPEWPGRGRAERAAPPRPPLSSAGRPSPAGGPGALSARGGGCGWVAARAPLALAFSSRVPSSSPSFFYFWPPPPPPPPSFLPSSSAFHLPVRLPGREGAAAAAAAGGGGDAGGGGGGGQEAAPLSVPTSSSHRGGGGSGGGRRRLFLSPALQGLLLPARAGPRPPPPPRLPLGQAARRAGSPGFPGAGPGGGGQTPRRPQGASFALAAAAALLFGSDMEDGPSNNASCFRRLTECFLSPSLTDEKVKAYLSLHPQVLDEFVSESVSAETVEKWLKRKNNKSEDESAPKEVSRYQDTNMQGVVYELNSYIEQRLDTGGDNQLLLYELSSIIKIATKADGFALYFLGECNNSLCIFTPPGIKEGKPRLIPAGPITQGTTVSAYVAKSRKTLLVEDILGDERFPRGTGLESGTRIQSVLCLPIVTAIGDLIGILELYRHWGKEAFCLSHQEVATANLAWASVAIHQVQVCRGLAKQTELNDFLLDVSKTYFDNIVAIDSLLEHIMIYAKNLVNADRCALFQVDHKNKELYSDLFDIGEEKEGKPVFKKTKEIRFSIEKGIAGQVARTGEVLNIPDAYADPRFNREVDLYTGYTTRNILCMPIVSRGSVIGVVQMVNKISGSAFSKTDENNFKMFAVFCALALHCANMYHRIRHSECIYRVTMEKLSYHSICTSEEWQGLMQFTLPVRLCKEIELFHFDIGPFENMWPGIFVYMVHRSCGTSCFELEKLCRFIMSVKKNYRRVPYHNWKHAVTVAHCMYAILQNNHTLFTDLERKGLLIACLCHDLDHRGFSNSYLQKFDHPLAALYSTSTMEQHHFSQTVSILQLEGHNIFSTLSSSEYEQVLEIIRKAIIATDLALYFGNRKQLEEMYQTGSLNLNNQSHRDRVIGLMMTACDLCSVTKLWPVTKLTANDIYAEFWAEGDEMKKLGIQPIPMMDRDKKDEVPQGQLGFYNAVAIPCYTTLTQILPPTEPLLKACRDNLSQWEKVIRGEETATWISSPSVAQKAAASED

Structure (SMILES)	PDE-10 EC300 (μM)
O=c1[nH]c(CCc2nc(-c3cccc4cccnc34)c[nH]2)nc2ccccc12 [Compound 58]	++ (1 < IC50 or EC300 < 10 μM ++)
Cn1c(CCc2cnc3c(Cl)ccc(Cl)c3n2)nc2c3cccnc3ccc21 [Compound 149]	++++ (IC50 or EC300 < 0.5 μM ++++)

Reference: patent publication US10562916B2, “Substituted quinoxalines as PDE-10 inhibitors” (SUNOVION PHARMACEUTICALS INC., priority 2010, dated 2020)
